Test [1] concerns the target T1, FLAG-tagged GXYLT2 (glucoside xylosyltransferase 2) (UniProt A0PJZ3).
T1 sequence: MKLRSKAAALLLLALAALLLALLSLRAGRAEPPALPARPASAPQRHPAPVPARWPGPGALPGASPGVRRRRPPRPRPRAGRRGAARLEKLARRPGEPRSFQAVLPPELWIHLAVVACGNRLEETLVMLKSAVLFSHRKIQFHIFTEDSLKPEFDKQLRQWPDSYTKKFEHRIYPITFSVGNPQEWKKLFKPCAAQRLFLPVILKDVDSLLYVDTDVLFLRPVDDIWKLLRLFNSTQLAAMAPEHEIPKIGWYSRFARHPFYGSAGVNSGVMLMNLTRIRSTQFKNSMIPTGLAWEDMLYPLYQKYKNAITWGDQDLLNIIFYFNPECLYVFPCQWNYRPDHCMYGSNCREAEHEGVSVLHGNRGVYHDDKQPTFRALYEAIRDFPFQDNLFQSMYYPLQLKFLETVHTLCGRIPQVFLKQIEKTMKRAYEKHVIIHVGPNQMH
Put plainly: co-IP; 293T cells transiently transfected with HA-tagged PP2A Aα and FLAG-tagged GXYLT2; IP with FLAG-tag antibody and blot with HA-tag antibody, and IP with HA-tag antibody and blot with FLAG-tag antibody; whole cell lysates as input.

Sequences of proteins named here, by UniProt entry; tags and fusion partners are left off.
UniProt P30153: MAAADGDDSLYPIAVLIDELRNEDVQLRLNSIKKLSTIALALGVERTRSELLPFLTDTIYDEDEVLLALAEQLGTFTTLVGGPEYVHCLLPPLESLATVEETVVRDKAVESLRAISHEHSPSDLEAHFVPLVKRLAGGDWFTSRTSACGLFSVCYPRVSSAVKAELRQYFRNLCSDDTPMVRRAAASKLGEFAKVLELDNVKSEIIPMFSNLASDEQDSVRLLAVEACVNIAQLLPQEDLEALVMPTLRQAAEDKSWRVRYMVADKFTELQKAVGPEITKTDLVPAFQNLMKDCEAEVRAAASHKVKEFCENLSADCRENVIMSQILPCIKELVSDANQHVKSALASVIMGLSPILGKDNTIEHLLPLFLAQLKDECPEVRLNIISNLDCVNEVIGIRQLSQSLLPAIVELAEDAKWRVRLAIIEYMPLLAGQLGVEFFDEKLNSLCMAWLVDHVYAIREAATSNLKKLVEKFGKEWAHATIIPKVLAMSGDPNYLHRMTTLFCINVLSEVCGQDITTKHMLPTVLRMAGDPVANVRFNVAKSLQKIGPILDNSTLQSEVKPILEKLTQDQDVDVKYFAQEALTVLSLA

The target of test [2] is HA-tagged PP2A Aα (protein phosphatase 2A scaffold subunit, A subunit) (UniProt P30153). The description is as above.

These are yes or no findings as the source states them, for the method shown. Binding seen in cells or lysates may run through a third protein. Some entries that bind do so weakly or less than the wild type. Where a sequence is shown, tags or fusion partners need not be part of it.

“HA-tagged PP2A Aα (protein phosphatase 2A scaffold subunit, A subunit) (from UniProt P30153 1-589)”: the binding entry in test [1] is listed as “binds”.

B1: FLAG-tagged GXYLT2 (glucoside xylosyltransferase 2) (enzyme, UniProt A0PJZ3 1-443)
chain: MKLRSKAAALLLLALAALLLALLSLRAGRAEPPALPARPASAPQRHPAPVPARWPGPGALPGASPGVRRRRPPRPRPRAGRRGAARLEKLARRPGEPRSFQAVLPPELWIHLAVVACGNRLEETLVMLKSAVLFSHRKIQFHIFTEDSLKPEFDKQLRQWPDSYTKKFEHRIYPITFSVGNPQEWKKLFKPCAAQRLFLPVILKDVDSLLYVDTDVLFLRPVDDIWKLLRLFNSTQLAAMAPEHEIPKIGWYSRFARHPFYGSAGVNSGVMLMNLTRIRSTQFKNSMIPTGLAWEDMLYPLYQKYKNAITWGDQDLLNIIFYFNPECLYVFPCQWNYRPDHCMYGSNCREAEHEGVSVLHGNRGVYHDDKQPTFRALYEAIRDFPFQDNLFQSMYYPLQLKFLETVHTLCGRIPQVFLKQIEKTMKRAYEKHVIIHVGPNQMH
Consider B1, for which, in test [2], the binding result is given as “binds”.

The values above are taken from publication PMC12765262.
